PubChem BioAssay AID652243, Drosophila RNAi Screening Center – 2013
The deposit covers about 24,000 reagents; this is a random part of those that have a named target and a result. Over the whole deposit, 246 (1%) got an active call. 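Plates not normalised; calls are printed but the firefly/Renilla ratio behind them is not deposited; fold cut for lowering reported inconsistently.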 The raw values are shown without normalisation. No sequences are given here. The record does not give: the amount of reagent.

- Purpose: 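Fly regulators of androgen-dependent reporter output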 (primary screen)
- System: Drosophila S2R+ cells
- Reagents: long dsRNA against Drosophila genes
- Duration: 72 h (48 h, then 24 h hormone)
- Treatment: synthetic androgen R1881 at 10 nM for 24 h
- Measurement: 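Firefly light from an androgen-responsive reporter and Renilla control light per well, raw and unnormalised, for each of two replicates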
- Reading the numbers: firefly reporter light: higher = more light from androgen-responsive reporter; Renilla control light: higher = more constitutive control signal (cell number, transfection)
- Rule for the call: 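Hit when the log firefly-to-Renilla ratio dropped or increased by a fixed fold versus the mean of GFP or LacZ controls across duplicate plates; lowering cut given as 1.5 and as 3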
- Calls: active = hit: reporter lowered or raised; inactive = no hit

For Esp [DRSC16664], the values are firefly reporter light, replicate 1 = 2.34e5; firefly reporter light, replicate 2 = 2.95e5; Renilla control light, replicate 1 = 2.32e6; Renilla control light, replicate 2 = 2.26e6; inactive.
After knock-down of CG15399 [DRSC38934] the results were firefly reporter light, replicate 1 = 8.99e5; firefly reporter light, replicate 2 = 9.61e5; Renilla control light, replicate 1 = 2.26e6; Renilla control light, replicate 2 = 2.08e6; inactive.
With knock-down of Fatp (retired record) [DRSC03054], the screen gave firefly reporter light, replicate 1 = 1.10e6; firefly reporter light, replicate 2 = 1.64e6; Renilla control light, replicate 1 = 1.34e6; Renilla control light, replicate 2 = 2.54e6; inactive.
PNKP [DRSC16512] scored firefly reporter light, replicate 1 = 1.10e5; firefly reporter light, replicate 2 = 1.31e5; Renilla control light, replicate 1 = 1.85e6; Renilla control light, replicate 2 = 2.58e6; inactive.
Knock-down of CG8329 [DRSC10978] came out at: firefly reporter light, replicate 1 = 7.49e5; firefly reporter light, replicate 2 = 6.62e5; Renilla control light, replicate 1 = 1.86e6; Renilla control light, replicate 2 = 2.00e6; inactive.
After knock-down of CG8329 [DRSC26746], the record shows firefly reporter light, replicate 1 = 4.85e5; firefly reporter light, replicate 2 = 3.03e5; Renilla control light, replicate 1 = 4.64e5; Renilla control light, replicate 2 = 2.03e5; inactive.
For Ant2 [DRSC19330], the entry reads firefly reporter light, replicate 1 = 1.24e5; firefly reporter light, replicate 2 = 1.10e5; Renilla control light, replicate 1 = 7.99e5; Renilla control light, replicate 2 = 8.54e5; inactive.
Silencing of Ant2 [DRSC26446] came out at: firefly reporter light, replicate 1 = 2.90e5; firefly reporter light, replicate 2 = 4.14e5; Renilla control light, replicate 1 = 6.46e5; Renilla control light, replicate 2 = 7.15e5; inactive.
With knock-down of CG14331 [DRSC14810], the screen gave firefly reporter light, replicate 1 = 1.92e5; firefly reporter light, replicate 2 = 2.04e5; Renilla control light, replicate 1 = 1.83e6; Renilla control light, replicate 2 = 3.05e6; inactive.
CG8245 [DRSC04901] scored firefly reporter light, replicate 1 = 4.49e5; firefly reporter light, replicate 2 = 7.65e5; Renilla control light, replicate 1 = 1.17e6; Renilla control light, replicate 2 = 2.13e6; inactive.
With knock-down of MetRS [DRSC22533], the screen gave firefly reporter light, replicate 1 = 9.02e5; firefly reporter light, replicate 2 = 9.91e5; Renilla control light, replicate 1 = 1.39e6; Renilla control light, replicate 2 = 1.15e6; inactive.
Depletion of ms(2)35Ci [DRSC01460] resulted in: firefly reporter light, replicate 1 = 1.81e5; firefly reporter light, replicate 2 = 1.88e5; Renilla control light, replicate 1 = 5.33e5; Renilla control light, replicate 2 = 4.44e5; inactive.
After knock-down of Ifrd1 [DRSC00415], the record shows firefly reporter light, replicate 1 = 1.04e5; firefly reporter light, replicate 2 = 1.54e5; Renilla control light, replicate 1 = 8.53e5; Renilla control light, replicate 2 = 9.52e5; inactive.
Ifrd1 [DRSC00566] showed firefly reporter light, replicate 1 = 1.20e5; firefly reporter light, replicate 2 = 1.01e5; Renilla control light, replicate 1 = 1.00e6; Renilla control light, replicate 2 = 8.13e5; inactive.

Targets above whose gene name begins with C or c:
CG15399 [DRSC38934] | firefly reporter light, replicate 1: 8.99e5; firefly reporter light, replicate 2: 9.61e5; Renilla control light, replicate 1: 2.26e6; Renilla control light, replicate 2: 2.08e6; Call: inactive
CG8329 [DRSC10978] | firefly reporter light, replicate 1: 7.49e5; firefly reporter light, replicate 2: 6.62e5; Renilla control light, replicate 1: 1.86e6; Renilla control light, replicate 2: 2.00e6; Call: inactive
CG8329 [DRSC26746] | firefly reporter light, replicate 1: 4.85e5; firefly reporter light, replicate 2: 3.03e5; Renilla control light, replicate 1: 4.64e5; Renilla control light, replicate 2: 2.03e5; Call: inactive
CG14331 [DRSC14810] | firefly reporter light, replicate 1: 1.92e5; firefly reporter light, replicate 2: 2.04e5; Renilla control light, replicate 1: 1.83e6; Renilla control light, replicate 2: 3.05e6; Call: inactive
CG8245 [DRSC04901] | firefly reporter light, replicate 1: 4.49e5; firefly reporter light, replicate 2: 7.65e5; Renilla control light, replicate 1: 1.17e6; Renilla control light, replicate 2: 2.13e6; Call: inactive

Further entries:
For akirin [DRSC11000], the values are firefly reporter light, replicate 1 = 5.56e5; firefly reporter light, replicate 2 = 3.19e5; Renilla control light, replicate 1 = 1.02e6; Renilla control light, replicate 2 = 7.40e5; inactive.
Against akirin [DRSC26196] the deposit lists firefly reporter light, replicate 1 = 1.65e5; firefly reporter light, replicate 2 = 1.81e5; Renilla control light, replicate 1 = 1.74e5; Renilla control light, replicate 2 = 1.85e5; inactive.
Acp65Aa [DRSC09663] gave firefly reporter light, replicate 1 = 1.55e5; firefly reporter light, replicate 2 = 1.16e5; Renilla control light, replicate 1 = 2.16e6; Renilla control light, replicate 2 = 1.55e6; inactive.
Acp65Aa [DRSC26708] gave firefly reporter light, replicate 1 = 3.62e5; firefly reporter light, replicate 2 = 2.51e5; Renilla control light, replicate 1 = 6.16e5; Renilla control light, replicate 2 = 6.33e5; inactive.
CG7406 [DRSC20042] gave firefly reporter light, replicate 1 = 1.06e5; firefly reporter light, replicate 2 = 40368; Renilla control light, replicate 1 = 4.14e5; Renilla control light, replicate 2 = 1.62e5; inactive.
For CG7406 [DRSC28709], the values are firefly reporter light, replicate 1 = 3.51e5; firefly reporter light, replicate 2 = 3.43e5; Renilla control light, replicate 1 = 1.41e6; Renilla control light, replicate 2 = 1.67e6; inactive.
After knock-down of dind [DRSC16294], the record shows firefly reporter light, replicate 1 = 1.09e5; firefly reporter light, replicate 2 = 82053; Renilla control light, replicate 1 = 5.64e5; Renilla control light, replicate 2 = 9.04e5; inactive.
With knock-down of dind [DRSC27615], the record shows firefly reporter light, replicate 1 = 3.89e5; firefly reporter light, replicate 2 = 3.05e5; Renilla control light, replicate 1 = 6.36e5; Renilla control light, replicate 2 = 4.94e5; inactive.
CG13024 [DRSC09904] scored firefly reporter light, replicate 1 = 2.74e5; firefly reporter light, replicate 2 = 2.63e5; Renilla control light, replicate 1 = 2.21e6; Renilla control light, replicate 2 = 1.91e6; inactive.
Knock-down of CG13024 [DRSC29921] came out at: firefly reporter light, replicate 1 = 3.98e5; firefly reporter light, replicate 2 = 4.46e5; Renilla control light, replicate 1 = 1.07e6; Renilla control light, replicate 2 = 1.35e6; inactive.
After knock-down of betaTub97EF [DRSC15666], the record shows firefly reporter light, replicate 1 = 2.20e5; firefly reporter light, replicate 2 = 1.97e5; Renilla control light, replicate 1 = 2.48e6; Renilla control light, replicate 2 = 2.66e6; inactive.
With knock-down of betaTub97EF [DRSC15667], the record shows firefly reporter light, replicate 1 = 1.73e5; firefly reporter light, replicate 2 = 1.98e5; Renilla control light, replicate 1 = 2.38e6; Renilla control light, replicate 2 = 2.72e6; inactive.
betaTub97EF [DRSC15668] showed firefly reporter light, replicate 1 = 1.58e5; firefly reporter light, replicate 2 = 1.70e5; Renilla control light, replicate 1 = 2.26e6; Renilla control light, replicate 2 = 2.80e6; inactive.
